Measured values reported in paper PMC6016232.

Target: Fbx23::TAP (Aspergillus nidulans)
Experiment: affinity purification with mass spectrometry; Fbx23::TAP tandem affinity purification, LC-MS/MS; strains grown 24 h in 1% xylan, then glucose to 2% for 5, 10, 15 and 30 min; untagged strain as negative control, unspecific interactions subtracted

binding: binds
B1: SkpA (protein, UniProt Q5BAX8 1-161)
chain: MAEKMLVMTSNDGKNIEVPRDVAERSLLIKNMLEDLGDPTEPIPIPNVSENVLSKVLEWCAHHRNDPPSSADDDDSRRKTTDIEEWDQKFMQVDQEMLFEIILAANYLDIKPLLDIGCKTVANMIKGKSPEEIRKTFNIQNDFTPEEEDQIRRENEWAEDR

Results are given in words; binding and its absence hold for the method and conditions named. Binding seen in cells or lysates may run through a third protein. Here binding means that the protein was enriched with, or labelled near, the bait; the list need not be complete.
